Data from patent US20110003753A1, “COMPOSITIONS AND METHODS FOR DISRUPTING THE FUNCTION OF THE TRANSCRIPTIONAL REPRESSOR COMPONENT Sin3A-PAH2 DOMAIN TO INDUCE DIFFERENTIATION AND GROWTH INHIBITION IN BREAST CANCER” (SAMUEL WAXMAN CANCER RESEARCH FOUNDATION, priority 2009, published 2011).
Results are given in words; binding and its absence hold for the method and conditions named. Binding seen in cells or lysates may run through a third protein. Some results given as binding are weak or reduced against the parent protein; the word gives no strength. Sequences can lack the tags named with a protein.

Protein sequences, listed by entry. Tags and fused reporters are not part of them.
UniProt Q05195: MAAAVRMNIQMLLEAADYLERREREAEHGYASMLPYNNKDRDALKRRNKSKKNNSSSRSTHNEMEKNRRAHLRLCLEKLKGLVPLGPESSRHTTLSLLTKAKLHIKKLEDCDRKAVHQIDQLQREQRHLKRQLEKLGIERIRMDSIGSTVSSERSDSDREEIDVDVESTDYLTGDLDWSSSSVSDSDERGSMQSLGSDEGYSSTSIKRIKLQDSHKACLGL

What was measured:
[1] = target: T1, GST-Sin3A PAH2 (Sin3A PAH2 domain, amino acids 306-450, expressed in E. coli as a GST fusion) (UniProt Q60520); test: GST pull-down, 35S autoradiography (FIG. 2A, left panel)
T1 sequence (looked up): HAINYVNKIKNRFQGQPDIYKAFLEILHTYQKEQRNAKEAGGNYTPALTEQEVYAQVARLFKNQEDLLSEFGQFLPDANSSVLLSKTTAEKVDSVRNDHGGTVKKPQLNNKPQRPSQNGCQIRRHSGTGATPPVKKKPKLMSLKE

[2] = target: T1, GST-Sin3A PAH2 (Sin3A PAH2 domain, amino acids 306-450, expressed in E. coli as a GST fusion); test: GST pull-down, Western blot (FIG. 2A, right panel)

binding [1] | binding [2] | Substance
binds |  | 35S-methionine labeled in vitro translated MAD (from UniProt Q05195 1-221)
 | binds | MAD immunoprecipitated from MDA-MB-231 cell lysates (from UniProt Q05195 1-221)
